PubChem BioAssay AID1259272 – Sanger Institute – 2017
The deposit covers 794 reagents; below is a part drawn at random. Over the whole deposit, 7 (0.88%) were called active. 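Essential calls reflect knock-down without drug only, not synergy with drugs; drug exposure length not given.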 Entries without a mark were called inactive. No viability above 1 is reported: the scale is capped. Not all columns of the deposit are shown. Not stated in the record: the amount of reagent, the time to read-out.

Aim: 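Kinase knock-downs lethal to colorectal cancer cells, with or without anchor drugs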 (primary screen)
System: SW1116 human colorectal cancer cells
Reagents: siRNA pool against human genes
Challenge: anchor drugs BYL719 (1 µM), cetuximab (5 µg/ml) or trametinib (10 nM), or DMSO vehicle; exposure length not given
Detection: 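Cell survival as a fraction of wells given a non-targeting pool, averaged over replicates; robust z-score without drug; synergy score for each of BYL719, cetuximab and trametinib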
Scale: viability z-score, no drug: higher = more cells remaining; strongly negative means essential gene; viability, no drug: higher = more viable cells; synergy score with BYL719 and synergy score with cetuximab: higher = stronger synthetic-lethal synergy with the drug
Hit rule: 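a robust z-score under -3 with siRNA and no drug marks the gene essential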
Calls: active = essential (knock-down alone); inactive = no change

gene	viability z-score, no drug	viability, no drug (fraction of control)	synergy score with BYL719	synergy score with cetuximab
PEAK1	-1.51	0.749	-0.31	0.0222
RNASEL	-0.948	0.809	-0.108	-0.18
MAP3K12	0.842	1	0.0687	0.00908
TJP2	0.842	1	-0.00429	0.082
RIPK4	0.842	1	-0.0298	0.06
PIK3CB	0.268	0.939	0.0354	0.0468
DTYMK	0.842	1	-0.0479	0.00164
KALRN	0.842	1	0.0612	0.0795
GNAS	-1	0.804	-0.00518	0.23
PIM2	0.0677	0.918	0.183	0.114
BMAL1	-2.65	0.628	-0.0843	-0.0844
ADGRL2	-0.502	0.857	-0.126	-0.0797
PDK3	0.842	1	0.0145	0.181
PDGFRB	-2.45	0.649	-0.0782	-0.134
PKLR	0.582	0.972	-0.0567	-0.101
MKNK2	0.842	1	0.0101	-0.0757
TSSK3	0.842	1	0.0339	-0.0747
CDKN2B	0.842	1	-0.0624	-0.0422
TYK2	-1.37	0.764	-0.142	-0.0518
CAMKK1	0.842	1	-0.0379	-0.0154

Ordered by “synergy score with BYL719” (descending): some entries from above.
gene	viability z-score, no drug	viability, no drug (fraction of control)	synergy score with BYL719	synergy score with cetuximab
PIK3CB	0.268	0.939	0.0354	0.0468
RIPK4	0.842	1	-0.0298	0.06
